Measurements from PubChem BioAssay AID720591 (Broad Institute, 2013).
Among all 1,200 compounds or so, about 60 (5%) were called active. About 1% were inconclusive and are not listed.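 Rule for the calls: active = Decreasing signal and fitted IC50 at most twice the top valid tested dose; inconclusive = Bad fit or a level curve showing 30 to 70% inhibition; inactive = the rest.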 The list shows a part of the results. Measured potencies and affinities stand elsewhere.

By UniProt entry, the sequences of proteins in these tests, tags left out. Where a name states a change or a piece, a line headed by the entry shows the natural chain unless it says otherwise.
UniProt Q9NXA8: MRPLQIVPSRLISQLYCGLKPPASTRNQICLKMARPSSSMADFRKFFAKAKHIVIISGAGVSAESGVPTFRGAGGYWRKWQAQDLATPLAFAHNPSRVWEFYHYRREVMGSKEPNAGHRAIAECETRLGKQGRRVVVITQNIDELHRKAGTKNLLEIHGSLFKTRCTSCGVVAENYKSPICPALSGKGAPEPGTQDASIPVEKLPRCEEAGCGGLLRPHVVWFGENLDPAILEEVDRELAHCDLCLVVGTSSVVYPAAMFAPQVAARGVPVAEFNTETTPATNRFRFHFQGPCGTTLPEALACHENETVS

Target: NAD-dependent protein deacylase sirtuin-5, mitochondrial (Homo sapiens) (UniProt Q9NXA8)
Assay: SIRT5 desuccinylase inhibitors, dose response, biochemical, fluorescence imaging, cherry-pick, set 5 (AID 720591);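 note: 0% = median of neutral control wells and -100% = median of positive control wells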
Settings: Purified SirT5, succinyl-peptide AMC, trypsin-coupled fluorescence; at 15 µM (top of the series) unless noted

Row | Structure (SMILES) | activity change, negative = inhibition
1 | CC(=O)Nc1ccc(S(=O)(=O)Nc2ccc(-n3cnnn3)cc2)cc1 | inactive: -11.7%
2 | O=C(O)CSCC(=O)Nc1cccc(C(F)(F)F)c1 | inactive: -1.48%
3 | CCSc1nnc(NC(=O)Cc2ccc(OC)cc2)s1 | inactive: -29.4%
4 | Cn1cc(CCC(=O)N2CCCC(Nc3ccc(F)cc3)C2)cn1 (stereo not drawn) | inactive: -28.1%
5 | COc1ccc(-c2csc3nc(C(C)C)oc(=O)c23)cc1OC | inactive: -30.7%
6 | O=C(CSc1ccc(-c2ccccc2)nn1)N1CCN(c2ccccc2)CC1 | inactive: 8.7%
7 | O=C(NCc1ccccc1)C(c1ccco1)N(C(=O)c1csnn1)c1ccccc1 (stereo not drawn) | inactive: 11.3%
8 | O=C(Nc1nnc(C2CC2)s1)c1ccccn1 | inactive: -17.5%
9 | COc1ccccc1C1NC(=O)NC(C)=C1C(=O)OCc1ccccc1 (stereo not drawn) | inactive: -16.6%
10 | CCN1CCc2c(sc(NC(=O)c3ccc(S(=O)(=O)N(C)CC4CCCO4)cc3)c2C(N)=O)C1 (stereo not drawn) | inactive: 7.35%
11 | Cc1cnc(NC(=O)c2ccco2)s1 | inactive: 10.2%
12 | O=C(COc1ccc(-n2ccnc2)cc1)Nc1cccc(Cl)c1 | inactive: 1.48%
13 | Cc1ccc(S(=O)(=O)Nc2ccc(N(C)C)cc2)cc1 | inactive: -8.19%
14 | C[C@@H]1CN([C@@H](C)CO)C(=O)CCCn2nncc2CO[C@H]1CN(C)S(=O)(=O)c1ccc2c(c1)OCCCO2 | inactive: 20.3%
15 | COC(=O)c1c(NC(=O)C2(C)Cc3ccccc3C(=O)O2)sc2c1CCCC2 (stereo not drawn) | inactive: -28%
16 | CCCc1cc(=O)oc2c(C)c(OCC(=O)NCCN3CCOCC3)ccc12 | inactive: -21%
17 | COc1ccc(C(=O)N2CCN(S(=O)(=O)c3ccc(C)cc3)CC2)cc1S(=O)(=O)N1CCOCC1 | inactive: 26%
18 | COc1ccc(C(C)=O)cc1CSc1ccc(S(=O)(=O)N2CCOCC2)cn1 | inactive: -29.1%
19 | CC1(C)CC(=O)c2cc(C(=O)NNc3ccccc3)c(=O)n(-c3ccccc3)c2C1 | inactive: 6.99%
20 | Cc1ccc(S(=O)(=O)N2CC3CCCC2C3)cc1 (stereo not drawn) | inactive: 20.3%
21 | CCn1c(C)c(C)c2cc(C(=O)NC3CCCCCC3)ccc21 | inactive: -12.5%

Row | Structure (SMILES) | activity change, negative = inhibition
22 | C=CC[C@H](CC(=O)N(CCO)Cc1ccccc1)C(=O)N[C@@H](COC(=O)[C@H](CC=C)CC(=O)OC(C)(C)C)Cc1c[nH]c2ccccc12 | inactive: 17%
23 | Cc1ccccc1NC(=O)C1CC(=O)n2ncnc2N1 (stereo not drawn) | inactive: 14.6%
24 | CC1(C(=O)NCc2cc(F)cc(C(F)(F)F)c2)C=CC2(CCCCC2)N1C(=O)c1ccccc1 (stereo not drawn) | inactive: -7.85%
25 | O=C(Nc1cccc(Br)c1)c1ccc(CSc2ccccc2)cc1 | inactive: -25.6%
26 | c1ccc(COc2cccc(-c3cc4nc(NCCc5ccncc5)ccn4n3)c2)cc1 | inactive: -25.8%
27 | O=C(COc1ccccc1)NCC(c1ccco1)N1CCN(c2ccc(F)cc2)CC1 (stereo not drawn) | inactive: 13.8%
28 | CCC(=O)Nc1ccc2c(c1)OC[C@@H](C)N(Cc1ccccc1F)C[C@@H](C)[C@@H](OC)CN(C)C2=O | inactive: -34.7%
29 | C[C@H](CO)N1C[C@H](C)[C@@H](CN(C)S(=O)(=O)c2ccc3ccccc3c2)OCc2cnnn2CCCC1=O | inactive: 21.8%
30 | CN(CCCn1ccc(NC(=O)OCc2ccccc2)nc1=O)Cc1ccco1 | inactive: 12.5%
31 | O=C(C[C@H]1CC[C@@H]2[C@H](COC[C@H](O)CN2Cc2cccc(F)c2)O1)NCc1cccc(F)c1 | inactive: -14.3%
32 | CC(C)C[C@H](NC(=O)c1nc[nH]c1C(=O)NCC(=O)OCc1ccccc1)C(=O)OC(C)(C)C | inactive: -34.4%
33 | NC(=O)c1ccc(-c2c(-c3ccccc3)sc3ccccc23)cc1 | inactive: -20.9%
34 | Fc1ccc(-c2nc3ccc(Cl)cn3c2Cc2cccc(F)c2)cc1 | inactive: 12.6%
35 | C[C@@H]1CN([C@@H](C)CO)C(=O)c2cc(Br)cnc2O[C@H]1CN(C)C(=O)C1CCCCC1 | inactive: 1.2%
36 | Cc1ccc(C)c(S(=O)(=O)Nc2ccccc2C(=O)Nc2ccc(S(=O)(=O)Nc3ncccn3)cc2)c1 | inactive: -4.98%
37 | C[C@@H]1CCCCO[C@H](CN(C)C(=O)Nc2cccc3ccccc23)[C@@H](C)CN([C@H](C)CO)C(=O)c2cc(N(C)C)ccc2O1 | inactive: -30.4%
38 | O=S(=O)(c1ccc(F)cc1)c1nc(-c2ccco2)oc1Nc1ccccc1 | inactive: 23.7%
39 | CCCN(CCC)CCN1CCN(C(=O)[C@H](CCc2ccccc2)NC(=O)[C@H]2O[C@@H](n3cnc4c(N)ncnc43)[C@H](O)[C@@H]2O)CC1 | inactive: 17.5%
40 | CCOC(=O)C(C)OC(=O)C1=C(C)NC(=O)NC1c1ccc2c(c1)OCO2 (stereo not drawn) | inactive: -3.09%
41 | COc1ccccc1NC(=O)N1CCN(c2cccc(C(F)(F)F)c2)CC1 | inactive: 11.1%
42 | Cc1cn(CC(=O)NCc2ccccc2)c(=O)[nH]c1=O | inactive: 22.2%

Row | Structure (SMILES) | activity change, negative = inhibition
43 | COc1ccc(S(=O)(=O)Nc2ccc3c(c2)C(=O)N([C@@H](C)CO)C[C@H](C)[C@H](CN(C)CC2CC2)O3)cc1 | inactive: 0.708%
44 | COc1ccc(-n2nnnc2SCC(=O)c2ccc3c(c2)OCCO3)c(OC)c1 | inactive: 8.7%
45 | Cc1nc(N)sc1-c1csc(Nc2cccc(C(=O)O)c2)n1 | inactive: -26%
46 | COc1cc(C(=O)N2CCNCC2)cc(OC)c1OC | inactive: -4.5%
47 | Cc1ccccc1C(=O)N1CCN(c2ccc(NC(=O)c3ccccc3[N+](=O)[O-])cc2)CC1 | inactive: -26.4%
48 | Cc1ccc(NC(=O)C2CCN(C(=O)c3ccco3)CC2)cc1C | inactive: -16.9%
49 | CC(C)CCCCCCCCc1cccc(O)c1C(=O)O | inactive: 2.57% [at 7.5 µM]
50 | CC(C)CN1C(=O)C(NC(=O)C2CC2)(C(F)(F)F)C2=C1CC(C)(C)CC2=O (stereo not drawn) | inactive: -23.5%
51 | C=C(C)Cn1c(N2CCN(c3ccc(OC)cc3)CC2)nc2c1c(=O)n(C)c(=O)n2C | inactive: -9.42%
52 | O=S(=O)(c1ccccc1)c1nc(-c2ccco2)oc1Nc1ccccc1 | inactive: 14.9%
53 | CC(C)(C)c1ccc(C(=O)N2[C@H](COCc3ccccc3)C=CS2(=O)=O)cc1 | inactive: 7.89%
54 | CCOc1cc(C(=O)NC(CC(=O)O)c2ccc(OC3CCCC3)cc2)cc(OCC)c1OCC (stereo not drawn) | inactive: -27.9%
55 | CC(C)[C@H](NC(=O)N1CCn2c1nc1ccccc12)C(=O)NCc1ccc2c(c1)OCO2 | inactive: -4.97%
56 | Nc1nccc(-c2ccc(-n3cnc4ccccc43)cc2)n1 | inactive: 4.96%
57 | CC(C)(C)c1n[nH]c2c1CCCC2 | inactive: 12%
58 | O=C(NC1CCCCC1)C(c1ccco1)N(C(=O)c1csnn1)c1cccc(F)c1 (stereo not drawn) | inactive: -7.73%
59 | O=C(COc1ccccc1Cl)Nc1ccc(CN2CCCCC2)cc1 | inactive: 4.25%
60 | CC(C)NC(=O)NNC(=O)c1nn(-c2ccc(F)cc2)ccc1=O | inactive: 10.1%
61 | COc1ccccc1CNc1nc2cc(-c3ccc(OC)c(OC)c3)sc2c(=O)n1C | inactive: -2.27%
62 | CC1=C(C(=O)N(C(C)C)C(C)C)CC(CC(=O)NC2CCCCC2)C(=O)N1CCCN1CCCC1=O (stereo not drawn) | inactive: -26.2%
63 | CCc1nc2ccccc2c(C(=O)OCC(=O)NCCCN2CCCC2=O)c1C | inactive: 9.51%

Quoted at random: 3 compounds from above, in no set order.
Row | Structure (SMILES) | activity change, negative = inhibition
11 | Cc1cnc(NC(=O)c2ccco2)s1 | inactive: 10.2%
36 | Cc1ccc(C)c(S(=O)(=O)Nc2ccccc2C(=O)Nc2ccc(S(=O)(=O)Nc3ncccn3)cc2)c1 | inactive: -4.98%
5 | COc1ccc(-c2csc3nc(C(C)C)oc(=O)c23)cc1OC | inactive: -30.7%

Following part.

Row | Structure (SMILES) | activity change, negative = inhibition
64 | COc1cc(OC)cc(C(=O)N2CCC(N3CCN(c4ccccc4OC)CC3)CC2)c1 | inactive: -13.9%
65 | Cc1oc2c(C)c3oc(=O)c(CCC(=O)O)c(C)c3cc2c1-c1ccccc1 | inactive: -26.2%
66 | CCCS(=O)(=O)NC(=O)C1(C)CCN(C(=O)c2cccs2)C1 (stereo not drawn) | inactive: 16.8%
67 | Cc1ccc(Cc2c(-c3ccc(Br)cc3)nc3cc(C)ccn23)cc1 | inactive: -0.483%
68 | COc1cccc(CNC(=O)[C@@H]2CCCN2)c1 | inactive: -1.14%
69 | CCn1c(=O)cc(OCC(=O)NCCc2ccc(OC)c(OC)c2)c2ccccc21 | inactive: 0.771%
70 | COc1ccc(C(=O)OCC(=O)c2ccc(C)c(S(=O)(=O)N3CCOCC3)c2)cc1OC | inactive: 14.9%
71 | COc1cc2c(cc1OC)C(C)N(C(=O)c1ccc(C)o1)CC2 (stereo not drawn) | inactive: -22.7%
72 | CCN1C(=O)[C@H]2[C@@H](c3ccccc3)N[C@]3(CCCN(Cc4ccccc4)C3=O)[C@H]2C1=O | inactive: -23.8%
73 | COc1cc(C(C)=O)ccc1OC(=O)CN1C(=O)c2ccccc2C1=O | inactive: 11.6%
74 | Cc1cc(NC(=O)CCC(=O)N(CCc2ccccc2)C(C(=O)NC2CCCC2)c2ccco2)no1 (stereo not drawn) | inactive: -7.32%
75 | O=C(Nc1ncccc1Cl)c1cc2ccccc2o1 | inactive: 12.1%
76 | c1ccc(CCc2nc(-c3ccc(-n4cccc4)cc3)no2)cc1 | inactive: 16.5%
77 | CN(Cc1nc(-c2ccccc2)no1)C(=O)c1ccco1 | inactive: -0.677%
78 | O=C(Nc1ccc2c(c1)OCCO2)C(c1ccnc2ccccc12)N1CCN(c2ccc(F)cc2)CC1 (stereo not drawn) | inactive: 18.7%
79 | Cc1ccc(S(=O)(=O)N2C[C@@H]3CCCC[C@@H]3[C@@H](C)[C@H]2c2cn(Cc3ccccc3)c3ncccc23)cc1 | inactive: 14.3%
80 | CC(C)N(C(=O)COC(=O)[C@H](C)NC(=O)c1ccco1)c1ccccc1 | inactive: -30%
81 | CC[C@@]12C(=O)N(c3ccc(C)cc3)C(=O)N1[C@H](c1ccc(OC)cc1)[C@@H]1C(=O)N(C(C)(C)C)C(=O)[C@@H]12 | inactive: 8.79%
82 | CSc1ccccc1C(=O)N1CCCCC1 | inactive: 17.3%
83 | C[C@H](CO)N1C[C@H](C)[C@@H](CN(C)C(=O)Nc2ccc3c(c2)OCO3)Oc2c(NC(=O)C3CC3)cccc2C1=O | inactive: 19.7% [at 7.5 µM]
